Where “and” joins values, the source holds several entries; their conditions need not be identical. Identical values can stand only once. This is one part of the list. This data set is noisy: repeats of one test often differ as much as different tests do.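 HEK293T cells were given each compound shortly before transfection with a reporter in which red mCherry is followed by the SARS-CoV-2 frameshift element and then GFP in the −1 frame, so GFP appears only after frameshifting.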
The molecules below were run on SARS-CoV-2 -1 PRF reporter mCherry-FSE-GFP(-1) (assay: mCherry (red) intensity as percent of control; higher = higher upstream reporter expression). Conditions: 10 µM; 24 h; HEK293T.

Going from `Nc1c2c(nc3ccccc13)CCCC2O` (centres undefined) [velnacrine] to `CC(=O)OCC1=C(C(=O)O)N2C(=O)[C@@H](NC(=O)Cc3cccs3)[C@H]2SC1` [cefalotin], the mCherry rises from 77.4% to 79.9%.

Going from `O=C(CCCCC(=O)Nc1c(I)cc(I)c(C(=O)O)c1I)Nc1c(I)cc(I)c(C(=O)O)c1I` [adipiodone] to `C=CC1=C(C(=O)O)N2C(=O)[C@@H](NC(=O)/C(=N\OCC(=O)O)c3csc(N)n3)[C@H]2SC1` [cefixime], the mCherry falls from 96.4% to 82.6%.

First: C=CC1=C(C(=O)O)N2C(=O)[C@@H](NC(=O)/C(=N\O)c3csc(N)n3)[C@H]2SC1 [Omnicef]
Second: Cc1nnc(SCC2=C(C(=O)O)N3C(=O)[C@@H](NC(=O)Cn4cnnn4)[C@H]3SC2)s1
The mCherry of the first is lower: 105% for the first, 114% for the second.

First: OCc1cccnc1
Second: CN(C)CCc1c[nH]c2ccc(Cn3cncn3)cc12
The mCherry of the first is higher: 105% for the first, 101% for the second.

`C[C@H]1O[C@@H](O[C@H]2CC[C@@]3(C)[C@H](CC[C@@H]4[C@@H]3C[C@@H](O)[C@]3(C)[C@@H](C5=CC(=O)OC5)CC[C@]43O)C2)C[C@H](O)[C@@H]1O[C@H]1C[C@H](O)[C@H](O[C@H]2C[C@H](O)[C@H](O[C@@H]3O[C@H](CO)[C@@H](O)[C@H](O)[C@H]3O)[C@@H](C)O2)[C@@H](C)O1` [deslanoside] gave a mCherry of 13.5%.

These molecules were tested on SARS-CoV-2 -1 PRF reporter mCherry-FSE-GFP(-1) (assay: percent effect, decrease of GFP/mCherry ratio (-1 PRF reporter) relative to controls; higher = stronger frameshift inhibition). Conditions: 10 µM; 24 h; HEK293T.

Compared with `Cc1ccc(S(=O)(=O)NC(=O)N[C@H]2[C@H]3CC[C@@](C)([C@H]2O)C3(C)C)cc1` [glibornuride], `COc1ccc2c(c1)C(=O)N(CCc1ccc(S(=O)(=O)NC(=O)NC3CCCCC3)cc1)C(=O)C2(C)C` [Gliquidone] is lower in percent effect: 1.41% for the first, -0.593% for the second.

Compared with `CCCCC(CC)CN1CN(CC(CC)CCCC)CC(C)(N)C1` (centres undefined) [hexetidine], `C[C@H](CCC(=O)NCCS(=O)(=O)O)[C@H]1CC[C@H]2[C@@H]3[C@@H](O)C[C@@H]4C[C@H](O)CC[C@]4(C)[C@H]3CC[C@]12C` [Tauroursodeoxycholic acid] is lower in percent effect: 2.66% for the first, -2.66% for the second.

Compared with `COc1cc(C=CC(=O)N2CCCCCCC2)cc(OC)c1OC`, `COc1ccc2cc([C@H](C)C(=O)O)ccc2c1` [naproxen] is lower in percent effect: -1.82% for the first, -6.87% for the second.

Compared with `Cc1ccnc(NC(=O)C(C)c2cccc(C(=O)c3ccccc3)c2)c1` (centres undefined) [piketoprofen], `CN1C(C(=O)Nc2ccccn2)=C(O)c2ccccc2S1(=O)=O` [piroxicam] is higher in percent effect: -9.61% for the first, -4.8% for the second.

Compared with `NC(=O)Oc1ccc(Cc2ccccc2)cc1` [diphenan], `O=C(O)Cc1ccc2c(c1)C(=O)c1ccccc1CO2` [isoxepac] is higher in percent effect: -7.81% for the first, -1.79% for the second.

Compared with `CC[C@H]1OC(=O)[C@H](C)C(=O)[C@H](C)[C@@H](O[C@@H]2O[C@H](C)C[C@H](N(C)C)[C@H]2O)[C@](C)(OC)C[C@@H](C)C(=O)[C@H](C)[C@H]2N(CCCCn3cnc(-c4cccnc4)c3)C(=O)O[C@]12C`, `CN(C)[C@@H]1C(=O)C(C(=O)NCNCCCC[C@H](N)C(=O)O)=C(O)[C@@]2(O)C(=O)C3=C(O)c4c(O)cccc4[C@@](C)(O)[C@H]3C[C@@H]12` [Lymecycline] is lower in percent effect: -0.48% for the first, -1.09% for the second.

First: C[C@@H](O)[C@H]1C(=O)N2C(C(=O)O)=C(S[C@@H]3CN[C@H](CNS(N)(=O)=O)C3)[C@H](C)[C@H]12 [doripenem]
Second: CC(=O)OCC1=C(C(=O)O)N2C(=O)[C@@H](NC(=O)Cc3cccs3)[C@H]2SC1 [cefalotin]
The percent effect of the first is higher: -1.71% for the first, -7.74% for the second.

First: NCc1c[nH]c(=S)n1[C@H]1CCc2c(F)cc(F)cc2C1 [nepicastat]
Second: Nc1c2c(nc3ccccc13)CCCC2O (centres undefined) [velnacrine]
The percent effect of the first is lower: -17.3% for the first, -2.02% for the second.

First: CCN(CC)C(C)CC(=O)Nc1ccccc1 (centres undefined) [octacaine]
Second: CC1CCCCN1CCCOC(=O)c1ccccc1 (centres undefined) [piperocaine]
The percent effect of the first is lower: -2.9% for the first, -1.45% for the second.

Going from `CC(=O)O[C@]1(C(C)=O)CC[C@H]2[C@@H]3C=C(C)C4=CC(=O)CC[C@]4(C)[C@H]3CC[C@@]21C` to `CC(=O)[C@@]1(O)CC[C@H]2[C@@H]3C=C(Cl)C4=CC(=O)[C@@H]5C[C@@H]5[C@]4(C)[C@H]3CC[C@@]21C` [cyproterone], the percent effect falls from 0.304% to -2.64%.

First: O=C1NCC2(CCN(CCc3ccccc3)CC2)O1 [Fenspiride]
Second: O=C(OCCN1CCN(c2cccc(C(F)(F)F)c2)CC1)c1ccccc1Nc1ccnc2cc(C(F)(F)F)ccc12 [antrafenine]
The percent effect of the first is higher: 0.212% for the first, -4.57% for the second.

First: CC(C)(C)CC(C)(C)c1ccc(O)c(Cc2ccc(Cl)cc2Cl)c1 [clofoctol]
Second: Cc1cc(Cc2cnc(N)nc2N)c2cccnc2c1N(C)C [baquiloprim]
The percent effect of the first is higher: -3.93% for the first, -4.15% for the second.

Going from `CCC(=O)O[C@]1(C(=O)CCl)[C@@H](C)C[C@H]2[C@@H]3C[C@H](F)C4=CC(=O)C=C[C@]4(C)[C@@]3(F)[C@@H](O)C[C@@]21C` [Ultravate] to `C[C@H]1O[C@@H](O[C@H]2CC[C@@]3(C)[C@H](CC[C@@H]4[C@@H]3C[C@@H](O)[C@]3(C)[C@@H](C5=CC(=O)OC5)CC[C@]43O)C2)C[C@H](O)[C@@H]1O[C@H]1C[C@H](O)[C@H](O[C@H]2C[C@H](O)[C@H](O[C@@H]3O[C@H](CO)[C@@H](O)[C@H](O)[C@H]3O)[C@@H](C)O2)[C@@H](C)O1` [deslanoside], the percent effect falls from -2.28% to -8.3%.

Going from `O=S(=O)(O)Oc1ccc(C(c2ccc(OS(=O)(=O)O)cc2)c2ccccn2)cc1` [picosulfate] to `CC(C)C(=O)c1c(C(C)C)nn2ccccc12` [ibudilast], the percent effect rises from -11.4% to -2.75%.

First: NC[C@H]1O[C@H](O[C@H]2[C@H](O[C@@H]3O[C@H](CO)[C@@H](O)[C@H]3O)[C@@H](O)[C@H](N)C[C@@H]2N)[C@H](N)[C@@H](O)[C@@H]1O
Second: O=c1[nH]c(=O)n([C@H]2C[C@H](O)[C@@H](CO)O2)cc1Br [broxuridine]
The percent effect of the first is higher: -1.98% for the first, -10% for the second.

Compared with `CC(C)Nc1ncccn1` [isaxonine], `OCc1cccnc1` is lower in percent effect: 2.22% for the first, 0.253% for the second.

Going from `O=C(CCCCC(=O)Nc1c(I)cc(I)c(C(=O)O)c1I)Nc1c(I)cc(I)c(C(=O)O)c1I` [adipiodone] to `C=CC1=C(C(=O)O)N2C(=O)[C@@H](NC(=O)/C(=N\OCC(=O)O)c3csc(N)n3)[C@H]2SC1` [cefixime], the percent effect rises from -6.21% to 0.442%.

First: C=CC1=C(C(=O)O)N2C(=O)[C@@H](NC(=O)/C(=N\O)c3csc(N)n3)[C@H]2SC1 [Omnicef]
Second: Cc1nnc(SCC2=C(C(=O)O)N3C(=O)[C@@H](NC(=O)Cn4cnnn4)[C@H]3SC2)s1
The percent effect of the first is higher: -3.3% for the first, -14.6% for the second.

For `CN(C)CCc1c[nH]c2ccc(Cn3cncn3)cc12`, the percent effect was -4.81%.

`CC(C)C[C@H](NC(=O)[C@@H](COC(C)(C)C)NC(=O)[C@H](Cc1ccc(O)cc1)NC(=O)[C@H](CO)NC(=O)[C@H](Cc1c[nH]c2ccccc12)NC(=O)[C@H](Cc1cnc[nH]1)NC(=O)[C@@H]1CCC(=O)N1)C(=O)N[C@@H](CCCNC(=N)N)C(=O)N1CCC[C@H]1C(=O)NNC(N)=O` [Goserelin] was tested, and the percent effect was -2.34% and -0.186%.
With `CCc1ccc(CCOc2ccc(CC3SC(=O)NC3=O)cc2)nc1` (centres undefined) [pioglitazone] the percent effect was -0.212% and -2.59%.
For `CC(C)(C)NCC(O)c1ccc(O)c(CO)c1` (centres undefined) [salbutamol], the percent effect was 6.06% and -5.26%.

From the supplement of paper PMC8256030
